Test results published in patent US20220220215A1.
No constants are given. Whether binding was seen depends on the method and setting. Some results given as binding are weak or reduced against the parent protein; the word gives no strength. Where a sequence is shown, tags or fusion partners need not be part of it.

Chains of the proteins cited; added tags and fusions are not shown. Lines headed by an entry give the natural chain unless they say otherwise; changes in a name come on top.
UniProt Q07011: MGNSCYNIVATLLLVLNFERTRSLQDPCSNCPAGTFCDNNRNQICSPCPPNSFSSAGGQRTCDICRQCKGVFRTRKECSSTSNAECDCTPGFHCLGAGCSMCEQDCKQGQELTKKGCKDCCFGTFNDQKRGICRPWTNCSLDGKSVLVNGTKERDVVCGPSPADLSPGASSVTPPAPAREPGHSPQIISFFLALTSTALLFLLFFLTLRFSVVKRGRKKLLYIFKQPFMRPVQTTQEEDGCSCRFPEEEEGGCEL

B1: TPP-975: CD137D-6GS-PDA2-6GS-HSA2-His (bispecific antibody)
chain: EVQLVESGGGVVQPGGSLRLSCAASGFTFSNYGMHWVRQAPGKGLEWVAVISNDGNTKTYADSVKGRFTISRDNSKNTLYLQMNSLRAEDTAVYYCAQDETTTVTASYYFDYWGQGTLVTVSSGGGGSGGGGSGGGGSGGGGSGGGGSGGGGSEVQLVESGGGVVRPGGSLRLSCAASGFTFDDYAMSWVRQAPGKGLEWVSGITWNAGSTGYADSVKGRFTISRDNAKNSLYLQMNSLRAEDTALYYCVRDKYSYAWSYDDFDIWGQGTMVTVSSGGGGSGGGGSGGGGSGGGGSGGGGSGGGGSEVQLVESGGGLVKPGGSLRLSCAASGFTFSNYNMNWVRQAPGKGLEWVSSISSAGTHIYYADSVKGRFTISRDNAKNSLYLQMNSLRAEDTAVYYCARDPHSTGWYKDFDYWGQGTLVTVSSAAAHHHHHH
B2: TPP-982: CD137A -6GS-HSA2-6GS-PDA-His (bispecific antibody)
chain: EVQLVESGGGLVQPGGSLRLSCAASGFTLSNYWMNWVRQAPGKGLEWVANINQDGSERYYVDSVKGRFTISRDNAKNSLYLQMNSLRAEDTAVYYCARGGEGYGVDHYGLDVSGQGTTVTVSSGGGGSGGGGSGGGGSGGGGSGGGGSGGGGSEVQLVESGGGLVKPGGSLRLSCAASGFTFSNYNMNWVRQAPGKGLEWVSSISSAGTHIYYADSVKGRFTISRDNAKNSLYLQMNSLRAEDTAVYYCARDPHSTGWYKDFDYWGQGTLVTVSSGGGGSGGGGSGGGGSGGGGSGGGGSGGGGSEVQLVESGGGLVQPGRSLRLSCAASGFTFDDYALHWVRQAPGKDLEWVSGISWNGGSYGYADSVKGRFTISRDNAKNSLYLQMNSLRAEDTALYYCVREKGPGLTGSTADYYGLDAWGQGTMVTVSSAAAHHHHHH
B3: TPP-983: CD137A -6GS-HSA2-6GS-PDA2-His (bispecific antibody)
chain: EVQLVESGGGLVQPGGSLRLSCAASGFTLSNYWMNWVRQAPGKGLEWVANINQDGSERYYVDSVKGRFTISRDNAKNSLYLQMNSLRAEDTAVYYCARGGEGYGVDHYGLDVSGQGTTVTVSSGGGGSGGGGSGGGGSGGGGSGGGGSGGGGSEVQLVESGGGLVKPGGSLRLSCAASGFTFSNYNMNWVRQAPGKGLEWVSSISSAGTHIYYADSVKGRFTISRDNAKNSLYLQMNSLRAEDTAVYYCARDPHSTGWYKDFDYWGQGTLVTVSSGGGGSGGGGSGGGGSGGGGSGGGGSGGGGSEVQLVESGGGVVRPGGSLRLSCAASGFTFDDYAMSWVRQAPGKGLEWVSGITWNAGSTGYADSVKGRFTISRDNAKNSLYLQMNSLRAEDTALYYCVRDKYSYAWSYDDFDIWGQGTMVTVSSAAAHHHHHH
B4: TPP-984: CD137D -6GS-HSA2-6GS-PDA-His (bispecific antibody)
chain: EVQLVESGGGVVQPGGSLRLSCAASGFTFSNYGMHWVRQAPGKGLEWVAVISNDGNTKTYADSVKGRFTISRDNSKNTLYLQMNSLRAEDTAVYYCAQDETTTVTASYYFDYWGQGTLVTVSSGGGGSGGGGSGGGGSGGGGSGGGGSGGGGSEVQLVESGGGLVKPGGSLRLSCAASGFTFSNYNMNWVRQAPGKGLEWVSSISSAGTHIYYADSVKGRFTISRDNAKNSLYLQMNSLRAEDTAVYYCARDPHSTGWYKDFDYWGQGTLVTVSSGGGGSGGGGSGGGGSGGGGSGGGGSGGGGSEVQLVESGGGLVQPGRSLRLSCAASGFTFDDYALHWVRQAPGKDLEWVSGISWNGGSYGYADSVKGRFTISRDNAKNSLYLQMNSLRAEDTALYYCVREKGPGLTGSTADYYGLDAWGQGTMVTVSSAAAHHHHHH
B5: TPP-985: CD137D -6GS-HSA2-2-6GS-PDA2-His (bispecific antibody)
chain: EVQLVESGGGVVQPGGSLRLSCAASGFTFSNYGMHWVRQAPGKGLEWVAVISNDGNTKTYADSVKGRFTISRDNSKNTLYLQMNSLRAEDTAVYYCAQDETTTVTASYYFDYWGQGTLVTVSSGGGGSGGGGSGGGGSGGGGSGGGGSGGGGSEVQLVESGGGLVKPGGSLRLSCAASGFTFSNYNMNWVRQAPGKGLEWVSSISSAGTHIYYADSVKGRFTISRDNAKNSLYLQMNSLRAEDTAVYYCARDPHSTGWYKDFDYWGQGTLVTVSSGGGGSGGGGSGGGGSGGGGSGGGGSGGGGSEVQLVESGGGVVRPGGSLRLSCAASGFTFDDYAMSWVRQAPGKGLEWVSGITWNAGSTGYADSVKGRFTISRDNAKNSLYLQMNSLRAEDTALYYCVRDKYSYAWSYDDFDIWGQGTMVTVSSAAAHHHHHH
B6: TPP-1010: PD138G7(G109D)-6GS-HSA2-6GS- CD137D -His (bispecific antibody)
chain: EVQLVESGGGVVRPGGSLRLSCAASGFTFDDYAMSWVRQAPGKGLEWVSGITWNGGSTGYADSVKDRFTISRDNAKNSLYLQMNSLRAEDTALYYCVRDKYSYAWSYDDFDIWGQGTMVTVSSGGGGSGGGGSGGGGSGGGGSGGGGSGGGGSEVQLVESGGGLVKPGGSLRLSCAASGFTFSNYNMNWVRQAPGKGLEWVSSISSAGTHIYYADSVKGRFTISRDNAKNSLYLQMNSLRAEDTAVYYCARDPHSTGWYKDFDYWGQGTLVTVSSGGGGSGGGGSGGGGSGGGGSGGGGSGGGGSEVQLVESGGGVVQPGGSLRLSCAASGFTFSNYGMHWVRQAPGKGLEWVAVISNDGNTKTYADSVKGRFTISRDNSKNTLYLQMNSLRAEDTAVYYCAQDETTTVTASYYFDYWGQGTLVTVSSAAAHHHHHH
B7: TPP-1023: CD137A -6GS-HSA3-6GS-PDA-His (bispecific antibody)
chain: EVQLVESGGGLVQPGGSLRLSCAASGFTLSNYWMNWVRQAPGKGLEWVANINQDGSERYYVDSVKGRFTISRDNAKNSLYLQMNSLRAEDTAVYYCARGGEGYGVDHYGLDVSGQGTTVTVSSGGGGSGGGGSGGGGSGGGGSGGGGSGGGGSEVQLLESGGGLVKPGGSLRLSCAASGFTVSSYTMNWVRQAPGKGLEWVSSISSSGRYIYYADSVKGRFTISRDNAKNSLYLQMNSLRAEDTAVYYCARDPRMVGNPHEFDIWGQGTMVTVSSGGGGSGGGGSGGGGSGGGGSGGGGSGGGGSEVQLVESGGGLVQPGRSLRLSCAASGFTFDDYALHWVRQAPGKDLEWVSGISWNGGSYGYADSVKGRFTISRDNAKNSLYLQMNSLRAEDTALYYCVREKGPGLTGSTADYYGLDAWGQGTMVTVSSAAAHHHHHH
B8: TPP-1027: CD137A -6GS-HSA2-6GS-PD138G7(G109D)-His (bispecific antibody)
chain: EVQLVESGGGLVQPGGSLRLSCAASGFTLSNYWMNWVRQAPGKGLEWVANINQDGSERYYVDSVKGRFTISRDNAKNSLYLQMNSLRAEDTAVYYCARGGEGYGVDHYGLDVSGQGTTVTVSSGGGGSGGGGSGGGGSGGGGSGGGGSGGGGSEVQLVESGGGLVKPGGSLRLSCAASGFTFSNYNMNWVRQAPGKGLEWVSSISSAGTHIYYADSVKGRFTISRDNAKNSLYLQMNSLRAEDTAVYYCARDPHSTGWYKDFDYWGQGTLVTVSSGGGGSGGGGSGGGGSGGGGSGGGGSGGGGSEVQLVESGGGVVRPGGSLRLSCAASGFTFDDYAMSWVRQAPGKGLEWVSGITWNGGSTGYADSVKDRFTISRDNAKNSLYLQMNSLRAEDTALYYCVRDKYSYAWSYDDFDIWGQGTMVTVSSAAAHHHHHH
B9: TPP-1028: CD137A -6GS-HSA3-6GS-PD138G7(G109D)-His (bispecific antibody)
chain: EVQLVESGGGLVQPGGSLRLSCAASGFTLSNYWMNWVRQAPGKGLEWVANINQDGSERYYVDSVKGRFTISRDNAKNSLYLQMNSLRAEDTAVYYCARGGEGYGVDHYGLDVSGQGTTVTVSSGGGGSGGGGSGGGGSGGGGSGGGGSGGGGSEVQLLESGGGLVKPGGSLRLSCAASGFTVSSYTMNWVRQAPGKGLEWVSSISSSGRYIYYADSVKGRFTISRDNAKNSLYLQMNSLRAEDTAVYYCARDPRMVGNPHEFDIWGQGTMVTVSSGGGGSGGGGSGGGGSGGGGSGGGGSGGGGSEVQLVESGGGVVRPGGSLRLSCAASGFTFDDYAMSWVRQAPGKGLEWVSGITWNGGSTGYADSVKDRFTISRDNAKNSLYLQMNSLRAEDTALYYCVRDKYSYAWSYDDFDIWGQGTMVTVSSAAAHHHHHH
B10: 003BB172-E01 (VHH, not shown: small tags and cut ends)
VH: EVQLVESGGGLVQPGGSLRLSCAASGFTFSNYGMHWVRQAPGKRLEWVAVISNDGNTKTYADSVKGRFTISRDNSKNMLYLQMTSLRTEDTAVYYCAQDETTTVTASYYFDYWGQGTLVTVSS
B11: 003BB172-E01-1 (VHH, not shown: small tags and cut ends)
VHH: EVQLVESGGGLVQPGGSLRLSCAASGFTFSNYGMHWVRQAPGKGLEWVAVISNDGNTKTYADSVKGRFTISRDNSKNMLYLQMTSLRTEDTAVYYCAQDETTTVTASYYFDYWGQGTLVTVSS

The binders below were run against human CD137 expressed on cells (human) (UniProt Q07011) (assay: FMAT (Mirrorball), His-tagged sample on CHO human CD137 cells).
In the case of B1, the binding is reported as “binds”. In the case of B2, the binding is reported as “binds”. For B3, the binding was “binds”. B4 was tested, and the binding was “binds”. In the case of B5, the binding is reported as “binds”. With B6 the binding was “binds”. For B7, the binding was “binds”. In the case of B8, the binding is reported as “binds”. For B9, the binding was “binds”. B10 was tested, and the binding was “binds”. For B11, the binding was “binds”.
